# Library screening results

From ChEMBL document CHEMBL3988442, “University of Dundee, Small-Polar-MMV Screening Library” (2021).

Each number is a percent effect as filed.
The controls that fix the scale are not given in the record; negative values are as filed.
The compounds are a random part of those screened.

Mtb growth Cornell: 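Whole-cell assay for inhibitors of Mycobacterium tuberculosis growth, labelled Cornell in the record; the read-out is not stated. The concentration is filed as 10 mM, unlikely as a test dose, so the dose is not known. The record gives no direction; compounds strong in two other growth screens of this library score well above the rest, so higher reads as stronger inhibition. Of about 53,000 compounds tested this way, about 900 (1.7%) reached 50% or more in at least one test.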
Mtb heat-shock: 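Assay on Mycobacterium tuberculosis, filed only as a heat shock assay from Cornell; the read-out is not stated. The concentration is filed as 10 mM, unlikely as a test dose, so the dose is not known. Direction is inferred from retests: higher values go with stronger inhibition. Size under these conditions: about 69,000 compounds, about 930 of them at 50% or above in at least one test.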

With CNc1cc(C2CN(Cc3cccnc3NC)CCO2)nc(C)n1 (centres unmarked) the screen gave Mtb growth Cornell: 13.95%; Mtb heat-shock: -5.836%. COc1c(C2CCCN2C(=O)c2ccc(Cl)o2)c(C)nn1C (centres unmarked) gave Mtb growth Cornell: 6.757%; Mtb heat-shock: 3.503%. Cc1ccc(-c2cc(CN3CCc4cncnc4C3)on2)cc1 read Mtb growth Cornell: 3.094%; Mtb heat-shock: -41.08%. N#Cc1cc2n(n1)CCN(C(=O)CCc1c[nH]c3ccccc13)C2 gave Mtb growth Cornell: 31.81%; Mtb heat-shock: 4.816%.

O=C1Nc2ccccc2C12CCCN(Cc1ccncc1)C2 (centres unmarked) read Mtb growth Cornell: 16.5%; Mtb heat-shock: 3.131%. Result for Cc1noc(C2CCCN(C(=O)c3cccc(Cl)c3)C2)n1 (centres unmarked) was Mtb growth Cornell: -10.09%; Mtb heat-shock: -7.23%. Result for Cc1ncnc2c1CCN(c1cc(C(F)(F)F)ncn1)CC2 was Mtb growth Cornell: 3.759%; Mtb heat-shock: -1.444%. CC(=O)N1CCN(c2cc(-n3cnc(C)c3C)nc(C)n2)CC1 gave Mtb growth Cornell: -6.945%; Mtb heat-shock: -22.74%.

CC(C)Oc1ccc(CN2CCCC(N3CCOCC3)C2)cc1CO (centres unmarked) gave Mtb growth Cornell: 7.765%; Mtb heat-shock: 2.8%. CN(Cc1cc(-c2ccccc2)no1)Cc1nccn1C read Mtb heat-shock: 9.865%. With CNc1nc(C2CCCN2)nc2c1CCN(S(=O)(=O)C1CCCCC1)C2.Cl (centres unmarked) the screen gave Mtb growth Cornell: -16.01%; Mtb heat-shock: 12.62%. For Cc1nnc(CN2CCN(C(C)c3nc(C4CC4)no3)CC2)o1 (centres unmarked) the result was Mtb heat-shock: -5.41%.

For CC(C)NC(=O)[C@@H]1C[C@H](N)CN1C(=O)c1cc2ccccc2[nH]c1=O the result was Mtb growth Cornell: 10.92%; Mtb heat-shock: 8.6%. Result for Cn1ccnc1Sc1ncc(C(=O)N2CCCCC2)cc1Cl was Mtb growth Cornell: -14.1%; Mtb heat-shock: -21.65%. COc1cccc(CNC(=O)c2nc3c(o2)CN(C(=O)N(C)C)C3)c1 gave Mtb growth Cornell: 35.29%; Mtb heat-shock: -10.75%. Result for CC(C)n1c(=O)c2ccccc2n(CCCN(C)C)c1=O.Cl was Mtb growth Cornell: 7.367%; Mtb heat-shock: -3.454%.

Cc1cc(NC(=O)C(C#N)Cc2cnn(C)c2C)no1 (centres unmarked) gave Mtb growth Cornell: 15.04%; Mtb heat-shock: 3.921%. With O=C(c1csnn1)N1CCc2ccccc21 the screen gave Mtb heat-shock: 10.03%. CC1(C(=O)NCCN2CCCCC2)CCCN1C(=O)c1ccccc1 (centres unmarked) read Mtb growth Cornell: 12.13%; Mtb heat-shock: -16.87%. Result for CCc1nnc2n1CCN(Cc1csc(NC(C)=O)n1)C2 was Mtb growth Cornell: -9.052%; Mtb heat-shock: -26.56%.

For O=C1CCC2(CCCN(CCn3cc(Cl)cn3)C2)CN1C1CCCC1 (centres unmarked) the result was Mtb growth Cornell: -12.38%; Mtb heat-shock: -6.748%. With COc1cncc(-n2nc(C)c(CC(C)=O)c2C)c1 the screen gave Mtb growth Cornell: 14.09%; Mtb heat-shock: -6.9%. For CN1CCCC2(CCN(C(=O)c3ccncc3)C2)C1 (centres unmarked) the result was Mtb growth Cornell: 11.47%; Mtb heat-shock: -5.239%. CNC(=O)c1cn(C(C)(C)C)c2ncccc12 read Mtb growth Cornell: 1.167%; Mtb heat-shock: 4.278%.

NC(=O)CN1CCC(NC2CSCCc3ccccc32)CC1 (centres unmarked) gave Mtb growth Cornell: 12.24%; Mtb heat-shock: 33.9%. Result for CC(C(=O)N1CCCN(c2ncccc2C#N)CC1)n1cccn1 (centres unmarked) was Mtb growth Cornell: -1.228%; Mtb heat-shock: -0.821%. Fc1cccnc1N1CCCC(c2nccs2)C1 (centres unmarked) gave Mtb growth Cornell: -4.209%; Mtb heat-shock: 3.592%. Cc1cc(Cl)ccc1NCc1cnn(C2CCS(=O)(=O)C2)c1 (centres unmarked) gave Mtb growth Cornell: 15.25%; Mtb heat-shock: 30.97%.

With COc1ccc(C(=O)Nc2c(C)nc3cccc(C)n3c2=O)cc1 the screen gave Mtb growth Cornell: 11.35%; Mtb heat-shock: -16.68%. For COC(=O)[C@@H]1Cc2[nH]cnc2CN1Cc1cc2ccccc2o1 the result was Mtb heat-shock: -15.78%. With COC(=O)c1occc1Cn1cc(Br)cn1 the screen gave Mtb growth Cornell: -5.91%; Mtb heat-shock: 3.501%. CC(C)N1CC2(CCC1=O)CCN(C(=O)c1cccc(F)c1F)CC2 read Mtb growth Cornell: 15.79%; Mtb heat-shock: 14.17%.

Result for c1ccc(COCC2CN(Cc3ccsc3)Cc3nccn3C2)nc1 (centres unmarked) was Mtb growth Cornell: -10.02%; Mtb heat-shock: -28.17%. CC(C)c1nccc(N2CCN(CC(=O)N3CCOCC3)CC2)n1 gave Mtb growth Cornell: -2.828%; Mtb heat-shock: 5.471%. With Cc1ccsc1CN(C)Cc1nc2c(cnn2C)c(=O)[nH]1 the screen gave Mtb growth Cornell: 9.067%; Mtb heat-shock: 33.82%. CC(CC(=O)N1CCCS1(=O)=O)c1ccccc1C(F)(F)F (centres unmarked) read Mtb growth Cornell: 36.18%; Mtb heat-shock: -6.656%.

Result for Cc1cncc(C(=O)N[C@@H]2CC[C@@H](N3CCOCC3)[C@@H]2O)c1 was Mtb growth Cornell: -4.922%; Mtb heat-shock: -8.448%. For COc1cc(CN(C)C(=O)NCCC2CCCO2)ccc1SC (centres unmarked) the result was Mtb growth Cornell: 21.83%; Mtb heat-shock: 22.06%. Result for COc1ccc(C(C(=O)O)N2CCN(C3CCCCC3)CC2)cc1OC (centres unmarked) was Mtb heat-shock: -22.18%.